# Measured values reported in PubChem BioAssay AID651768 (National Center for Advancing Translational Sciences (NCATS), 2012).
# Protein sequences, listed by entry. Tags and fused reporters are not part of them.
# UniProt Q14191, whole entry, looked up: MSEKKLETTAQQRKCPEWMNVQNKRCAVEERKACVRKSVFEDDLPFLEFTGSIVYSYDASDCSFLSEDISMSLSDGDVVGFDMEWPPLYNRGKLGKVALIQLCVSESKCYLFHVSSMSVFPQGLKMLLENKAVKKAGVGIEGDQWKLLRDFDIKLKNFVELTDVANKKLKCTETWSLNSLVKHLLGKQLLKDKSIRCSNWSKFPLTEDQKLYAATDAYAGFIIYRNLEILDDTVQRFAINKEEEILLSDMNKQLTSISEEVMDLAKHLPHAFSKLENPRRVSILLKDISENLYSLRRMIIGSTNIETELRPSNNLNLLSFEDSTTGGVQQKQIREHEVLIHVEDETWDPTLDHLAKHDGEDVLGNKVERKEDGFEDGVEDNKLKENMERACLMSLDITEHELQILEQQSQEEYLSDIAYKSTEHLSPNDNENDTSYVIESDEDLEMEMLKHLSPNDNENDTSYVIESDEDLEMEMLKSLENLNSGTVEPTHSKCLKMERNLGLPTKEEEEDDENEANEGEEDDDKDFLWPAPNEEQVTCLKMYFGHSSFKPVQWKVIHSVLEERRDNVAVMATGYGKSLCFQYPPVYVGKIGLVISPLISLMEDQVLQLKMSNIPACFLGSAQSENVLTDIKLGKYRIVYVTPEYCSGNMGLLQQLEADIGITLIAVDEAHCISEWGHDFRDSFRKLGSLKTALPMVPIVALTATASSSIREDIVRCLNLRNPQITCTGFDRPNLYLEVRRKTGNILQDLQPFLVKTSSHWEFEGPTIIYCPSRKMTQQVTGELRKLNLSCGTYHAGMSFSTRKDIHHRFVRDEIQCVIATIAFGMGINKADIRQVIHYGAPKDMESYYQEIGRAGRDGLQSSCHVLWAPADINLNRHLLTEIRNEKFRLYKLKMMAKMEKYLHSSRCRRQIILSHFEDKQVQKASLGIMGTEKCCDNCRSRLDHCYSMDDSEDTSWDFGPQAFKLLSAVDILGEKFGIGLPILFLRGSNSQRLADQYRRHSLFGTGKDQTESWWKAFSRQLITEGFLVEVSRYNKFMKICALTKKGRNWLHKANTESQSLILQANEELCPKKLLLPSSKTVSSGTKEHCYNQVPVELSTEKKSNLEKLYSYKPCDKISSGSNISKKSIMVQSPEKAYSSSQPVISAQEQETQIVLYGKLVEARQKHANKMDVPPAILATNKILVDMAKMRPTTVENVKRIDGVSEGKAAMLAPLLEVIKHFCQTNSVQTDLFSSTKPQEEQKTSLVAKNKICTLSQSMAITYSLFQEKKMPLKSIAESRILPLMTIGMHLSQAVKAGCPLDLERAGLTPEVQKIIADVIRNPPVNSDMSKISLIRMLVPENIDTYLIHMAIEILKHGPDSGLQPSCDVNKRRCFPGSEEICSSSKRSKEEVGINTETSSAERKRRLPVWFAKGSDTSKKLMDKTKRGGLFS
# About 1,700 (0.47%) of roughly 360,000 compounds were called active. This list was built around the results that the source calls inconclusive (neither active nor inactive); the mix of calls is not that of the screen. The call rests on the fitted dose curve; in most records, active means well fitted inhibition curve with a large enough effect; inconclusive means small, poorly fitted or top-dose-only effect; inactive means no such curve, though single readings can be large or run the other way. Potencies of inconclusive entries are doubtful fits and often do not repeat.
# Biological target: Bifunctional 3'-5' exonuclease/ATP-dependent helicase WRN (Homo sapiens) (UniProt Q14191)
# Assay: qHTS for Inhibitors of WRN Helicase; further: nearly all actives have a fitted effect of over 55% in size
# Conditions: WRN helicase unwinding, fluorescent forked duplex, kinetic; activity change, negative = inhibition: at 114 µM (top of the series) unless noted
# Outline: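 Primary qHTS, 1536-well format. 20 nM WRN + compound, 15 min RT; start with 100 nM forked fluorophore/quencher duplex, 2 mM ATP (final); kinetic read ex 525/em 598 nm.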
# On the % scale 0 is the no-effect control and ±100 the full control effect; potency means the concentration at half of the fitted maximal effect.
SMILES,Potency,"activity change, negative = inhibition"
COc1ccc(NC(=O)C2CCN(C(=O)Nc3ccccc3)CC2)cc1S(=O)(=O)N(C)C,"inconclusive: 31.6 µM [inhibitor, single point]",–
COc1cccc2c1C(=O)c1c(O)c3c(c(O)c1C2=O)CC(O)(C(C)=O)CC3OC1CC(O)C(O)C(C)O1 (stereo not given),active: 2.99 µM,–
COc1cc2c(cc1OC)CN(C(=S)Nc1cccc(Cl)c1C)CC2,"inconclusive: 10 µM [inhibitor, full curve, poor fit]",–
COC(=O)c1ccccc1CSc1nsc(C)c1C#N,inactive,–
CC1(OC(=O)C2CCCC2)C(=O)C=C2C=C(c3ccsc3)OC=C2C1=O (stereo not given),"inconclusive: 2.99 µM [inhibitor, partial curve]",–
COc1ccc(CC(=O)N/N=C/c2ccc(C)s2)cc1,"inconclusive: 39.8 µM [inhibitor, single point]",–
CC(N=C1NS(=O)(=O)c2ccccc21)c1ccccc1 (stereo not given),inactive,–
O=C(COC(=O)/C=C/c1cccc(Cl)c1)Nc1cccc(S(=O)(=O)NC2=NCCC2)c1,inactive,–
O=C(c1ccc2c(c1)OCO2)N1CCC(Cc2ccccc2)CC1,inactive,–
CN1CCN(C(=O)CCCN2C(=O)/C(=C/c3ccc(Cl)cc3)SC2=S)CC1,inactive,–
CCC(/C=C1\Sc2ccc(OC)cc2N1CC)=C\c1sc2ccc(OC)cc2[n+]1CCCS(=O)(=O)[O-],inactive,–
O=C1c2cccc3cccc(c23)C(=O)N1CCN1CCN(C(=S)Nc2ccccc2)CC1,inactive,–
CCOC(=O)c1cc(-c2ccc(/C=C3/C(=O)NC(=O)C(C#N)=C3C)o2)ccc1Cl,"inconclusive: 50.1 µM [inhibitor, partial curve]",–
COc1ccc(Cn2c(-c3ccccc3)nc3c(c(=O)c4ccccc4n3C)c2=O)cc1,"inconclusive: 16.8 µM [inhibitor, partial curve]",–
COc1ccc(N(C(=O)c2ccco2)C(C(=O)NC2CCCC2)c2ccccc2)cc1 (stereo not given),"inconclusive: 89.1 µM [inhibitor, single point]",–
CC1(C)Cc2ccccc2C(CSc2ccccc2C(=O)O)=N1,"inconclusive: 39.8 µM [inhibitor, single point]",–
CCC(=NNC(=O)c1ccc2c(c1)nc(C)n2CC)c1cc(F)ccc1O,"inconclusive: 25.1 µM [inhibitor, partial curve]",–
Oc1cc2c(cc1C(c1ccc(Br)cc1)N1CCCC1)OCO2 (stereo not given),active: 44.7 µM,–
Cc1ccc(CN2CCN(C(=O)CCC(=O)Nc3nnc(C(C)C)s3)CC2)c(C)c1,"inconclusive: 39.8 µM [inhibitor, single point]",–
Brc1ccccc1CN1CCN(Cc2c[nH]c3ccccc23)CC1,"inconclusive: 35.5 µM [inhibitor, full curve]",–
COc1ccc(-c2nc(N)n(C(=O)c3cccs3)n2)cc1,"inconclusive: 39.8 µM [inhibitor, single point]",–
Cc1ccc(NC(=O)CN2C(=O)S/C(=C/c3ccc(-c4cccc(C(=O)O)c4)o3)C2=O)cc1,"inconclusive: 10 µM [inhibitor, partial curve]",–
Cc1cc(NC(=O)c2ccc([N+](=O)[O-])cc2)no1,inactive,–
CC1=CC(=O)CC2C1(C)CCC(C)C2(C)CCC(C)CC(=O)O (stereo not given),–,inactive: -4.34% [at 11.6 µM]

SMILES,Potency,"activity change, negative = inhibition"
COC1=CC(=O)C=C(OC)C1=O,active: 44.7 µM,–
COc1ccc(NC(=O)Nc2cccc(C(F)(F)F)c2)cn1,"inconclusive: 70.8 µM [inhibitor, single point]",–
COc1ccc(-c2nn(-c3ccccc3)cc2C(=O)Nc2cccc(C(=O)O)c2)cc1[N+](=O)[O-],"inconclusive: 50.1 µM [inhibitor, partial curve]",–
c1ccc(CN2CCC(Nc3nc(-c4cccnc4)nc4ccccc34)CC2)cc1,"inconclusive: 28.2 µM [inhibitor, full curve, poor fit]",–
Cc1ccc(Nc2ncnc3sccc23)c(C)c1,"inconclusive: 56.2 µM [inhibitor, partial curve]",–
CCCCN(C(=O)c1cccc(-n2cccc2)c1)c1c(N)n(CCCC)c(=O)[nH]c1=O,"inconclusive: 79.4 µM [inhibitor, partial curve]",–
Cc1ccc(-n2c(N)c(C(N)=O)sc2=S)cc1,"inconclusive: 79.4 µM [inhibitor, single point]",–
CCCN1C(=O)S/C(=C\c2ccc(N3CCOCC3)o2)C1=O,inactive,–
O=C(N/N=C/c1ccoc1)c1ccccc1O,–,inactive: -9.4% [at 11.6 µM]
O=C(NCCO)c1ccc2nc(-c3ccco3)c(-c3ccco3)nc2c1,active: 11.2 µM,–
O=C(N/N=C/c1sc(N2CCOCC2)nc1-c1ccccc1)c1ccccc1O,"inconclusive: 28.2 µM [inhibitor, partial curve]",–
C/C(CC(C)C)=N\NC(=O)Nc1ccccc1,"inconclusive: 11.2 µM [inhibitor, partial curve]",–
O=C(O)C1Sc2[nH]c(=O)sc2C2c3cc(Br)ccc3OC(=O)C12 (stereo not given),"inconclusive: 89.1 µM [inhibitor, partial curve]",–
Cc1ccc(NC(=O)C2CCN(S(=O)(=O)c3ccc4c(c3)NC(=O)C(C)S4)CC2)c(C)c1 (stereo not given),"inconclusive: 89.1 µM [inhibitor, single point]",–
CN(C)C=Nc1ccc2nc3c(cc2c1)[nH]c1ccccc13,"inconclusive: 56.2 µM [inhibitor, partial curve]",–
C[N+](C)(C)C/C=C1/COCO1,inactive,–
CCn1c2ccccc2c2cc(NC(=O)COC(=O)c3ccc(NC(=O)CC#N)cc3)ccc21,"inconclusive: 70.8 µM [inhibitor, single point]",–
Fc1cc(F)c2nc(Nc3nc4cc5c(cc4s3)OCO5)sc2c1,active: 28.2 µM,–
O=C(C[n+]1ccc(CCSc2ccc(F)cc2)cc1)c1ccccc1,active: 39.8 µM,–
N#CCSc1n[nH]c2nc3c(c(=O)n12)C1(CCCCC1)Cc1ccccc1-3,"inconclusive: 79.4 µM [inhibitor, partial curve]",–
COc1ccccc1NC(=O)CSCc1nc2ccccc2[nH]1,inactive,–
O=C(CCSC1=NCCCN1)c1ccc(F)cc1,"inconclusive: 15.8 µM [inhibitor, full curve, poor fit]",–
Cc1ccn2c(=O)nc(SCC(=O)NCc3ccccc3Cl)nc2c1,"inconclusive: 44.7 µM [inhibitor, single point]",–
O=C(O)c1nnn(-c2cc(C(F)(F)F)cc(C(F)(F)F)c2)c1-c1ccccc1,"inconclusive: 3.55 µM [inhibitor, full curve, poor fit]",–

# One compound at a time, from the list above. Order of values: Potency	activity change, negative = inhibition
# Cc1ccc(Nc2ncnc3sccc23)c(C)c1 is entered as inconclusive: 56.2 µM [inhibitor, partial curve]	–
# COC1=CC(=O)C=C(OC)C1=O is entered as active: 44.7 µM	–
# COc1ccc(NC(=O)Nc2cccc(C(F)(F)F)c2)cn1 is entered as inconclusive: 70.8 µM [inhibitor, single point]	–
# Fc1cc(F)c2nc(Nc3nc4cc5c(cc4s3)OCO5)sc2c1 is entered as active: 28.2 µM	–

# 2 consecutive compounds out of the list so far, quoted:
SMILES,Potency,"activity change, negative = inhibition"
c1ccc(CN2CCC(Nc3nc(-c4cccnc4)nc4ccccc34)CC2)cc1,"inconclusive: 28.2 µM [inhibitor, full curve, poor fit]",–
Cc1ccc(Nc2ncnc3sccc23)c(C)c1,"inconclusive: 56.2 µM [inhibitor, partial curve]",–

# Later entries.

SMILES,Potency,"activity change, negative = inhibition"
Cc1cc(C)n2cc(CSCc3ccco3)nc2n1,"inconclusive: 50.1 µM [inhibitor, partial curve]",–
CCCSC1=N/C(=C\C=C\c2ccco2)C(=O)S1,"inconclusive: 10.6 µM [inhibitor, partial curve]",–
CC1=NN(c2ccccc2)C(=O)/C1=C/c1cccs1,"inconclusive: 28.2 µM [inhibitor, partial curve]",–
COc1cc(/C=C2\SC(=S)N(NC(=O)c3ccccc3OC)C2=O)ccc1O,active: 15.8 µM,–
N#Cc1ccc(CC(=O)c2ccccc2)[nH]c1=O,active: 56.2 µM,–
COc1ccc2[nH]c(=O)c(CN(C3CCCCC3)C(c3nnnn3Cc3ccco3)C(C)C)cc2c1 (stereo not given),"inconclusive: 89.1 µM [inhibitor, partial curve]",–
CCN(CC(=O)Nc1ccc(C(C)=O)cc1)CC(=O)Nc1ccc2c(c1)OCCO2,"inconclusive: 35.5 µM [inhibitor, full curve, poor fit]",–
O=C(Nc1ccc(S(=O)(=O)N2CCCCC2)cc1)c1ccc(CN2CCc3ccccc3C2)cc1,inactive,–
Cc1ccc(NN2C(=O)C=C(c3ccccc3)C2=O)cc1,"inconclusive: 39.8 µM [inhibitor, partial curve]",–
CC(NC(=O)C1CCC(CNc2c(N3CCCCC3)c(=O)c2=O)CC1)c1ccccc1 (stereo not given),"inconclusive: 89.1 µM [inhibitor, single point]",–
O=C(CSC(=O)c1ccccc1)Nc1ccccc1F,inactive,–
CCCC(=O)Nc1sc(C)c(C)c1C#N,inactive,–
CNc1nc(-c2ccccc2)[n+](-c2ccc(C)cc2)s1,active: 50.1 µM,–
O=C(CCc1nc2sc3c(c2c(=O)[nH]1)CCCC3)NCCOc1ccccc1,inactive,–
COc1ccc(-c2[nH]ncc2/C=N\NC(=O)c2ccc(Br)o2)cc1OC,"inconclusive: 25.1 µM [inhibitor, full curve]",–
Cn1/c(=N/N=C/c2ccccn2)sc2ccccc21,"inconclusive: 28.2 µM [inhibitor, single point]",–
O=C(O)c1ccc(Cn2cc(/C=C\[N+](=O)[O-])c3ccccc32)o1,"inconclusive: 50.1 µM [inhibitor, partial curve]",–
CCOc1ccc(C2C(C(=O)Nc3ccccc3)=C(C)N=c3s/c(=C/c4cccc(OCC(=O)O)c4)c(=O)n32)cc1 (stereo not given),"inconclusive: 31.6 µM [inhibitor, single point]",–
CC1=Nc2ccccc2/C1=C\c1nc(-c2ccc(F)cc2)oc1O,"inconclusive: 21.2 µM [inhibitor, partial curve]",–
O=C(O)c1cc(-c2ccc(/C=C3\NC(=O)N(c4ccccc4)C3=O)o2)ccc1Cl,"inconclusive: 50.1 µM [inhibitor, partial curve]",–
COc1cccc(-c2cc(NC=O)c3ncc(-c4cccc(C(=O)N(C)C)c4)n3c2)c1,"inconclusive: 31.6 µM [inhibitor, single point]",–
CN1C(=O)CC(N2CCC(C(N)=O)CC2)C1=O (stereo not given),inactive,–
